# Laboratory results as given in the supplement of paper PMC3334620.
# Whole data set: some 33,000 sequences, median “E-score (-0.5 to 0.5)” near -0.0014, cut for the highest 2% near 0.25. Some of the results follow.
# Target: T1, Cad1 (UniProt P24813)
# T1 sequence: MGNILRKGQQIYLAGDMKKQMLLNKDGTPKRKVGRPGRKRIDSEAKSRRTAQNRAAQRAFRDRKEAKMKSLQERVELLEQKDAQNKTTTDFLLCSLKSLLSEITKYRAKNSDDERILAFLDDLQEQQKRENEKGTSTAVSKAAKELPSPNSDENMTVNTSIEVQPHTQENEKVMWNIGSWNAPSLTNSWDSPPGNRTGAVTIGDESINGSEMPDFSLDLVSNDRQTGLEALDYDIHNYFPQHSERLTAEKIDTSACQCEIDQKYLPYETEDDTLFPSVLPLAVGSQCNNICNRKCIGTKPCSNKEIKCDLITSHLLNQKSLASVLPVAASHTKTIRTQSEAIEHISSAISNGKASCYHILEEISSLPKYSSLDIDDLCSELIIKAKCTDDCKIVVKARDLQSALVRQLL
# Assay: PBM E-score (8-mer binding enrichment) (E-score (-0.5 to 0.5)); higher = stronger / more preferred TF binding
# Details: protein concentration: 100 nM; construct: GST-full length
# In short: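 Bound GST-tagged yeast transcription factors, applied at about 100-200 nM to double-stranded universal all-10-mer Agilent arrays, were detected with fluorescent anti-GST. Scans were normalised with masliner. A modified Wilcoxon-Mann-Whitney statistic, the E-score, was assigned to each ungapped eight-base word pooled with its reverse complement by the Universal PBM Analysis Suite.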
row,Sequence,PBM E-score
1,TGGACACA,0.0108
2,AGTCGATG,-0.0154
3,AAGCCAGT,-0.12
4,ACTGGAAC,0.0295
5,TTTATAAA,0.261
6,ATCGCTCG,0.0614
7,ACGATAAC,0.166
8,ACTACACT,0.0645
9,GAGGCAAA,0.068
10,CGATGATC,0.0807
11,ATGTCACG,0.0134
12,AGGGAGGC,-0.128
13,ACTCGCGG,0.0242
14,AAGACGAG,-0.224
15,GTGGCCAC,0.00829
16,AGCGTTGA,-0.0823
17,GACGGTGC,0.0564
18,CTTCACGA,-0.199
19,AGTATCGC,0.0762
20,AAAGAACT,0.0842
21,GCATGGTA,-0.0219
22,CCATATGA,-0.0943
23,ATAGAGGC,-0.0248
24,ATTCAGGA,-0.00566

row,Sequence,PBM E-score
1,TATTCGCA,0.0238
2,CGAACAAA,0.28
3,CTTTTCGA,0.0685
4,GTATCGAA,0.09
5,ATCTCCTG,-0.00761
6,GACCTCAA,0.0396
7,CAGCGAAG,-0.103
8,CCCACCGC,-0.019
9,TCTCTAAA,-0.202
10,CAACCGAG,-0.042
11,GCACGCCA,-0.056
12,ATTGTTCG,0.237
13,GCTCGAAA,0.208
14,GCGGCGCC,0.159
15,CCTCCTGC,-0.225
16,AACCTTGG,-0.168
17,CGCATTAA,0.193
18,ACCACCGA,-0.0327
19,CGACAAAA,0.136
20,CTGGACAA,0.00868
21,CAACCCAG,-0.0873
22,AGAGGACC,-0.231
23,CTTTTGGA,-0.102
24,TCCAGAGA,-0.0446

row,Sequence,PBM E-score
1,CCGATACC,-0.0535
2,TCAATAAA,-0.0393
3,AGTGCGAT,-0.102
4,TCTGCCCA,-0.17
5,GGTTTTGA,0.0367
6,GGTTCAGA,-0.0239
7,ACCATCTC,-0.00964
8,CCCTCACA,-0.0201
9,ATTAATAG,0.275
10,AGTCGCAA,0.132
11,CTCAAAGC,0.0156
12,CCCACCAA,-0.0273
13,AAGGCCCT,0.0605
14,TCACCTAA,0.0992
15,GAATGTGA,0.0848
16,CATTCGCA,-0.056
17,AGTTGGAA,-0.0684
18,AATCGGTA,0.0304
19,ATCAGTTC,-0.0834
20,AGATCCAG,0.114
21,AATCGCGT,0.107
22,CTCCACTA,0.138
23,GAGAGCTC,-0.189
24,GAAAGCAA,0.184

row,Sequence,PBM E-score
1,ACACGATA,0.0823
2,GACCTAAA,-0.0239
3,AGGTAGGA,0.0957
4,CTAGGGAG,-0.233
5,TGGTCCAA,-0.199
6,TGAGCGAA,0.123
7,AACCCCGA,0.0275
8,GGGCCCCC,-0.44
9,ACCTTAGC,-0.019
10,CCGTAAGA,-0.0747
11,CTAGAACA,0.127
12,AACGTCGT,0.144
13,CTGGCTGA,-0.00206
14,GTGTAGTA,0.0567
15,AGCGTACG,0.00701
16,AGGGTCAT,-0.269
17,CGATCGTC,0.124
18,CAGCGTAA,0.0938
19,CCACAGTC,-0.203
20,AAACATAT,0.25
21,AAACTGGA,-0.0639
22,CATTACAA,0.277

# Shown with bars between the fields: entries from further up
row | Sequence | PBM E-score
14 | GTGTAGTA | 0.0567
15 | AGCGTACG | 0.00701
16 | AGGGTCAT | -0.269
17 | CGATCGTC | 0.124
